# Results reported in the supplement of paper PMC10032668.
# Chains of the proteins cited; added tags and fusions are not shown.
# AP2A2, O94973, UniProt O94973, whole entry: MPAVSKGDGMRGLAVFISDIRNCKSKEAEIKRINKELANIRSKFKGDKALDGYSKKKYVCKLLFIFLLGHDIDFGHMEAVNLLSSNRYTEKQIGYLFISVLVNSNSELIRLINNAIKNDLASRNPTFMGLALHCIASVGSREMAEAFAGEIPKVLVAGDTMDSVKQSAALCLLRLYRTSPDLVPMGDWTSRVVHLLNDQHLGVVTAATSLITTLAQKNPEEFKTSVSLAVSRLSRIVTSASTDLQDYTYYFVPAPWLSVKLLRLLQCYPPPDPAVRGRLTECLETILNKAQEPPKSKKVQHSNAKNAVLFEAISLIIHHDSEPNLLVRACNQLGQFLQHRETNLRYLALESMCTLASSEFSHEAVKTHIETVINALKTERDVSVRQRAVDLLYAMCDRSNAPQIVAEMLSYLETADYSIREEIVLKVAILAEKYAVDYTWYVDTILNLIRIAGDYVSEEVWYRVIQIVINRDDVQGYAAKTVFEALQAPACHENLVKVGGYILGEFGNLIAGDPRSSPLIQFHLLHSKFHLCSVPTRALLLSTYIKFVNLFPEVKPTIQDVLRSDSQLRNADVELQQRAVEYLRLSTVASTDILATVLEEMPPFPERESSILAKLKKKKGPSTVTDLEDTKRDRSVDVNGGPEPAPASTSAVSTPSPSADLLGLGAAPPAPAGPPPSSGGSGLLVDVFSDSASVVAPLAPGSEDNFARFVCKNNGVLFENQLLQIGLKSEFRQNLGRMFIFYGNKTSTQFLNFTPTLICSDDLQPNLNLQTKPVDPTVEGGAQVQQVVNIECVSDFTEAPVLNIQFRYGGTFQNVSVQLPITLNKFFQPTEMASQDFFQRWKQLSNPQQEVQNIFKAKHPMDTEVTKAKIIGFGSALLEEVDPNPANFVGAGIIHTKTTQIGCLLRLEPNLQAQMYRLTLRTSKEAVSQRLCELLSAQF
# CAMP, P49913, UniProt P49913, whole entry: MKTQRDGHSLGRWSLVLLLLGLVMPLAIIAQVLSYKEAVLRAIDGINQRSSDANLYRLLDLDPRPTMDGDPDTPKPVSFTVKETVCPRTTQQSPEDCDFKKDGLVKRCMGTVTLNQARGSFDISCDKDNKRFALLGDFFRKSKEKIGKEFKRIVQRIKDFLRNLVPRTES
# CCT5, P48643, UniProt P48643, whole entry: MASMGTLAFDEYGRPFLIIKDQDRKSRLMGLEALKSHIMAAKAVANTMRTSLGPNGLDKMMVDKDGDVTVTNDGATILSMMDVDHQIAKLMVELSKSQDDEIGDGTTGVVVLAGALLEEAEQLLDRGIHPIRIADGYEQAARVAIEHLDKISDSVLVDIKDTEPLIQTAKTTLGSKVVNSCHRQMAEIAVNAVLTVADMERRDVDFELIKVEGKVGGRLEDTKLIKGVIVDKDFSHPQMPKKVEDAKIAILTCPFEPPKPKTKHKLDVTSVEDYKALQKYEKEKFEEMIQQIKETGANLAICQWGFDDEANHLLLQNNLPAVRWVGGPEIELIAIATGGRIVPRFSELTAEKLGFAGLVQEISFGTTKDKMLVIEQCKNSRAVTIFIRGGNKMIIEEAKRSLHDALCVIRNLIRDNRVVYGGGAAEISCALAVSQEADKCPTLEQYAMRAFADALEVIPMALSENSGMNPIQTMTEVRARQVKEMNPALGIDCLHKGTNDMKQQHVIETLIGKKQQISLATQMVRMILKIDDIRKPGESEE
# IGHA1, P01876, UniProt P01876, whole entry: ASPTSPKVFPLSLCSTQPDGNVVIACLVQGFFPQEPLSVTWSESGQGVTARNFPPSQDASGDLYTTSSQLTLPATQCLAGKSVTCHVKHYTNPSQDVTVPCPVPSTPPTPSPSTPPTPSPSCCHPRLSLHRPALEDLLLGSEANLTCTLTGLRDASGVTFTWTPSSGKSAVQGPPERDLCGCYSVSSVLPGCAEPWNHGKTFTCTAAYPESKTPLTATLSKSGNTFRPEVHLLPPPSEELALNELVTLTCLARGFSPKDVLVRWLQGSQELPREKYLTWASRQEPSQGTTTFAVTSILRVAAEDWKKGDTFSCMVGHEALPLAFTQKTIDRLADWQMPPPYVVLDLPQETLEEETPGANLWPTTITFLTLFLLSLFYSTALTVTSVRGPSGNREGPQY
# INTS2, Q9H0H0, UniProt Q9H0H0, whole entry: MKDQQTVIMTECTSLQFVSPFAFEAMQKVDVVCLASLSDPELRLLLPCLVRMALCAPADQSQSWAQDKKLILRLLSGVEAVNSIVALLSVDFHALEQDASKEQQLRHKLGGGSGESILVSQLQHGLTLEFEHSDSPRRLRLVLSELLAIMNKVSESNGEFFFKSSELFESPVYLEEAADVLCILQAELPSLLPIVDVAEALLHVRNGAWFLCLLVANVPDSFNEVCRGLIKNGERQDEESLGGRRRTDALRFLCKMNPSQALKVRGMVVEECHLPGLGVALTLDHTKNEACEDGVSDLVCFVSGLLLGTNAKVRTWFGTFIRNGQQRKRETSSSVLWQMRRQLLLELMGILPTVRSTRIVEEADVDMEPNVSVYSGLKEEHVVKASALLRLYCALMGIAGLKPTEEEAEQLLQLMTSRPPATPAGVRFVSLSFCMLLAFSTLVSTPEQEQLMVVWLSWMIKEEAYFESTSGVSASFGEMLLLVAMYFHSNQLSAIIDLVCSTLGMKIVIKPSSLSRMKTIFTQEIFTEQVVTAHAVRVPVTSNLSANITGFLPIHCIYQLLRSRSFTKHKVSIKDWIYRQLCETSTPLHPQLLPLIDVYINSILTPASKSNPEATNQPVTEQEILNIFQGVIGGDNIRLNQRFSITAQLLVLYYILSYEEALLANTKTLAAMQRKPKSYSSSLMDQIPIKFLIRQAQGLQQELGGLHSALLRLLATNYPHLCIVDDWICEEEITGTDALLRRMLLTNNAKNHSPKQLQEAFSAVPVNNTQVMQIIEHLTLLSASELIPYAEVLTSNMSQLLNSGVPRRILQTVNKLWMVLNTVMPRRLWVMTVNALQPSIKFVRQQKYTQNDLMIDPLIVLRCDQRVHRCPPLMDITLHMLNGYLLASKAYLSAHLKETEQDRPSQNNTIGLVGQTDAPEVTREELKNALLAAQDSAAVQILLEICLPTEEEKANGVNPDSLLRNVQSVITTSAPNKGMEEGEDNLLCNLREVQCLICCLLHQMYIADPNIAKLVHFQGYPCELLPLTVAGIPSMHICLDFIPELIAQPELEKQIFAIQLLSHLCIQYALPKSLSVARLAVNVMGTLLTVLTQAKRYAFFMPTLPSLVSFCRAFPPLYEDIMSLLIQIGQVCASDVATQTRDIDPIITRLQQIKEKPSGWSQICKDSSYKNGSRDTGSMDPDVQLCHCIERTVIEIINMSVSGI
# LARP4B, Q92615, UniProt Q92615, whole entry: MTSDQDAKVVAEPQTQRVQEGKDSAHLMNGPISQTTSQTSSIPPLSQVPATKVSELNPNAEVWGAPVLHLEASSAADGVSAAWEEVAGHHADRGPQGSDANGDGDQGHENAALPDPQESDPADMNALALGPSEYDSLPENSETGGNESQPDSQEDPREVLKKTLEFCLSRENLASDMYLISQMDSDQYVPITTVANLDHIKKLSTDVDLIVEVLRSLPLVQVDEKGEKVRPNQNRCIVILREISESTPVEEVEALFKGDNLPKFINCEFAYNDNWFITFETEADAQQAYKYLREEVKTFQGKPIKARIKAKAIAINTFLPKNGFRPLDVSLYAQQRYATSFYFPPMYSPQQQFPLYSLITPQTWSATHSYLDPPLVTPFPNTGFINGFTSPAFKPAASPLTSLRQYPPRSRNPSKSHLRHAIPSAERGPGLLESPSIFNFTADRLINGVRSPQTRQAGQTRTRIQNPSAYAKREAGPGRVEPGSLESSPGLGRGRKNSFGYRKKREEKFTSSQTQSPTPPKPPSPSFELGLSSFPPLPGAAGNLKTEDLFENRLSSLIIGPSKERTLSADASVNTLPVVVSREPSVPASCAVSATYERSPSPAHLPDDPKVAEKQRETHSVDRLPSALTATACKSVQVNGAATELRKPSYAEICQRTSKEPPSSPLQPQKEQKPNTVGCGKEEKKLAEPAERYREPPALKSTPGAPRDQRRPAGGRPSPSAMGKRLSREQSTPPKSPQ
# NDUFS1, P28331, UniProt P28331, whole entry: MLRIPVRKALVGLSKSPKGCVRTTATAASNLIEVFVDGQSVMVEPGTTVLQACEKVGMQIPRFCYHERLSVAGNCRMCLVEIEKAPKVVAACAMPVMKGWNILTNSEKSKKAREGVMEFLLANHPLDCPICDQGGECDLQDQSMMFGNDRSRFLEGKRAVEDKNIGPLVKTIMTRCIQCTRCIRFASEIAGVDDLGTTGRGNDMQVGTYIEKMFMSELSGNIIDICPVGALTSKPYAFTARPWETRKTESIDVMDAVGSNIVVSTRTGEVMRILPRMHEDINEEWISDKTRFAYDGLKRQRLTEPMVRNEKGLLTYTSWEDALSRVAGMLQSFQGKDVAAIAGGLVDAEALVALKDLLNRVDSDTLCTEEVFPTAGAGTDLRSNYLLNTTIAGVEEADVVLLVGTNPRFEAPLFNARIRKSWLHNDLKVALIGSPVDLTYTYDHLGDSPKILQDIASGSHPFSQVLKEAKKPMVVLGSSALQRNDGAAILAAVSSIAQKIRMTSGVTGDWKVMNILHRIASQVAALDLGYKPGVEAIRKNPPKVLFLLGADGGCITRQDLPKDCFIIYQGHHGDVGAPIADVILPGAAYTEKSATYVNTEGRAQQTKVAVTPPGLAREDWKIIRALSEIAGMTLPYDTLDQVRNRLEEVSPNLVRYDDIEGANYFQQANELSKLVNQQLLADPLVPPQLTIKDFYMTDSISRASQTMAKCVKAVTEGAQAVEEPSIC
# SET, Q01105, UniProt Q01105, whole entry: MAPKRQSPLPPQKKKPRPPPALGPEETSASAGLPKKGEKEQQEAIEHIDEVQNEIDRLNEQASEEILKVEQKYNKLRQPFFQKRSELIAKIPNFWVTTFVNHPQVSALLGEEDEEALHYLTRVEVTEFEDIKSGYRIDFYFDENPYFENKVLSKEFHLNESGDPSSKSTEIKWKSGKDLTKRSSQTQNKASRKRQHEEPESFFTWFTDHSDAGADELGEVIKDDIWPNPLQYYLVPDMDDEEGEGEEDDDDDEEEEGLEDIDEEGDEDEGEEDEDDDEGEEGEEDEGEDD
# This is one part of the list. Only hits are listed; about a third recur on repeated control peptides.
# B1: RAB12 (peptide)
# chain: AARAAGGSSPPGRPT
# Tests used:
# Test in all cases: PRISMA enrichment of interactor (LFQ) in peptide spot vs all other peptide spots (log2 fold change); higher = stronger / more specific binding of the interactor to the peptide
# [1] = target: ABCE1, P61221
# Experimental: (§1)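 PRISMA: 15-aa overlapping tiles (offset 8 aa) of 60 microproteins, plus SOS1/GLUT1 control peptides, were spot-synthesized on cellulose membranes in triplicate. Membranes were incubated with benzonase-treated HEK293T lysate, and bound proteins were identified by LC-MS/MS with LFQ. Enrichment is the log2 fold change of each protein in one spot versus all other spots. Only interactors passing the significance cutoff are listed.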
# [2] = target: ABHD14B, Q96IU4
# Experimental: as §1
# [3] = target: AGK, Q53H12
# Experimental: as §1
# [4] = target: ALKBH5, Q6P6C2
# Experimental: as §1
# [5] = target: ANXA5, P08758
# Experimental: as §1
# [6] = target: AP2A2, O94973
# Experimental: as §1
# [7] = target: ATXN10, Q9UBB4
# Experimental: as §1
# [8] = target: CAMP, P49913
# Experimental: as §1
# [9] = target: CBSL
# Experimental: as §1
# [10] = target: CCT5, P48643
# Experimental: as §1
# [11] = target: CDC5L, Q99459
# Experimental: as §1
# [12] = target: COQ5, Q5HYK3
# Experimental: as §1
# [13] = target: CPSF7, Q8N684
# Experimental: as §1
# [14] = target: CSTF1, Q05048
# Experimental: as §1
# [15] = target: DDX42, Q86XP3
# Experimental: as §1
# [16] = target: DNAJB12, Q9NXW2
# Experimental: as §1
# [17] = target: DPM1, O60762
# Experimental: as §1
# [18] = target: HOMER3, Q9NSC5
# Experimental: as §1
# [19] = target: IGF2BP2, Q9Y6M1
# Experimental: as §1
# [20] = target: IGHA1, P01876
# Experimental: as §1
# [21] = target: INTS2, Q9H0H0
# Experimental: as §1
# [22] = target: LARP4B, Q92615
# Experimental: as §1
# [23] = target: MCRIP2, Q9BUT9
# Experimental: as §1
# [24] = target: MED12, Q93074
# Experimental: as §1
# [25] = target: NAE1, Q13564
# Experimental: as §1
# [26] = target: NAMPT, P43490
# Experimental: as §1
# [27] = target: NDUFS1, P28331
# Experimental: as §1
# [28] = target: NOM1, Q5C9Z4
# Experimental: as §1
# [29] = target: NUP98, P52948
# Experimental: as §1
# [30] = target: PDK3, Q15120
# Experimental: as §1
# [31] = target: PFKL, P17858
# Experimental: as §1
# [32] = target: PNO1, Q9NRX1
# Experimental: as §1
# [33] = target: RBM15, Q96T37
# Experimental: as §1
# [34] = target: SEC16A, O15027
# Experimental: as §1
# [35] = target: SET, Q01105
# Experimental: as §1
# [36] = target: SLC25A1, P53007
# Experimental: as §1
# [37] = target: SLIRP, Q9GZT3
# Experimental: as §1
# [38] = target: SNX9, Q9Y5X1
# Experimental: as §1
# [39] = substrate: SON, P18583
# Experimental: as §1
# [40] = target: SPART, Q8N0X7
# Experimental: as §1
# [41] = target: TBCD, Q9BTW9
# Experimental: as §1
# [42] = target: TUBAL3, A6NHL2
# Experimental: as §1
# [43] = target: UBE2S, Q16763
# Experimental: as §1
# [44] = target: VARS, P26640
# Experimental: as §1
# [45] = target: XPO7, Q9UIA9
# Experimental: as §1
# [46] = target: YTHDC1, Q96MU7
# Experimental: as §1
# [47] = target: ZC3H11A, O75152
# Experimental: as §1
# [48] = target: ZNF317, Q96PQ6
# Experimental: as §1
binder,measurement,setting,value
B1,PRISMA enrichment of interactor (log2),[1],5.65
same,PRISMA enrichment of interactor (log2),[2],6.13
same,PRISMA enrichment of interactor (log2),[3],5.77
same,PRISMA enrichment of interactor (log2),[4],6.58
same,PRISMA enrichment of interactor (log2),[5],5.41
same,PRISMA enrichment of interactor (log2),[6],7.47
same,PRISMA enrichment of interactor (log2),[7],5.55
same,PRISMA enrichment of interactor (log2),[8],7.71
same,PRISMA enrichment of interactor (log2),[9],5.27
same,PRISMA enrichment of interactor (log2),[10],4.8
same,PRISMA enrichment of interactor (log2),[11],4.87
same,PRISMA enrichment of interactor (log2),[12],3.81
same,PRISMA enrichment of interactor (log2),[13],4.27
same,PRISMA enrichment of interactor (log2),[14],4.88
same,PRISMA enrichment of interactor (log2),[15],12.2
same,PRISMA enrichment of interactor (log2),[16],6.98
same,PRISMA enrichment of interactor (log2),[17],5.47
same,PRISMA enrichment of interactor (log2),[18],5.71
same,PRISMA enrichment of interactor (log2),[19],6.25
same,PRISMA enrichment of interactor (log2),[20],4.08
same,PRISMA enrichment of interactor (log2),[21],5.69
same,PRISMA enrichment of interactor (log2),[22],7.77
same,PRISMA enrichment of interactor (log2),[23],8.74
same,PRISMA enrichment of interactor (log2),[24],5.45
same,PRISMA enrichment of interactor (log2),[25],4.05
same,PRISMA enrichment of interactor (log2),[26],6.62
same,PRISMA enrichment of interactor (log2),[27],8.24
same,PRISMA enrichment of interactor (log2),[28],6.92
same,PRISMA enrichment of interactor (log2),[29],5.69
same,PRISMA enrichment of interactor (log2),[30],5.19
same,PRISMA enrichment of interactor (log2),[31],11
same,PRISMA enrichment of interactor (log2),[32],7.26
same,PRISMA enrichment of interactor (log2),[33],5.36
same,PRISMA enrichment of interactor (log2),[34],9.28
same,PRISMA enrichment of interactor (log2),[35],5.27
same,PRISMA enrichment of interactor (log2),[36],13.7
same,PRISMA enrichment of interactor (log2),[37],4.89
same,PRISMA enrichment of interactor (log2),[38],3.99
same,PRISMA enrichment of interactor (log2),[39],4.29
same,PRISMA enrichment of interactor (log2),[40],4.22
same,PRISMA enrichment of interactor (log2),[41],10.3
same,PRISMA enrichment of interactor (log2),[42],3.95
same,PRISMA enrichment of interactor (log2),[43],7.48
same,PRISMA enrichment of interactor (log2),[44],5.37
same,PRISMA enrichment of interactor (log2),[45],6.38
same,PRISMA enrichment of interactor (log2),[46],8.99
same,PRISMA enrichment of interactor (log2),[47],8.33
same,PRISMA enrichment of interactor (log2),[48],4.47

# Reformatted tab-delimited: part of the list above
binder	measurement	setting	value
B1	PRISMA enrichment of interactor (log2)	[1]	5.65
same	PRISMA enrichment of interactor (log2)	[4]	6.58
same	PRISMA enrichment of interactor (log2)	[6]	7.47
same	PRISMA enrichment of interactor (log2)	[9]	5.27
same	PRISMA enrichment of interactor (log2)	[10]	4.8
same	PRISMA enrichment of interactor (log2)	[15]	12.2
same	PRISMA enrichment of interactor (log2)	[16]	6.98
same	PRISMA enrichment of interactor (log2)	[29]	5.69
same	PRISMA enrichment of interactor (log2)	[32]	7.26
same	PRISMA enrichment of interactor (log2)	[36]	13.7
same	PRISMA enrichment of interactor (log2)	[37]	4.89
same	PRISMA enrichment of interactor (log2)	[44]	5.37
same	PRISMA enrichment of interactor (log2)	[48]	4.47
